Some entries share one result that the patent states for a list of compounds.
Legend:
Type in all cases: in vivo
[1] = system: Tobacco Budworm (Heliothis virescens); assay: B.4 Tobacco budworm test, insect diet with eggs in microtiter plates; details: at 2500 ppm; egg and larval mortality after 5 days
[2] = system: Mediterranean Fruitfly (Ceratitis capitata); assay: B.6 Mediterranean fruitfly test, insect diet with eggs in microtiter plates; details: at 2500 ppm; egg and larval mortality after 5 days
[3] = system: Neotropical Brown Stink Bug (Euschistus heros); assay: B.12 Neotropical brown stink bug test on soybean pods in plastic cups; details: at 100 ppm; adult stage; recorded after 5 days
Method: B.12 Neotropical Brown Stink Bug (Euschistus heros)
(§1) The active compound was dissolved at the desired concentration in a mixture of 1:1 (vol:vol) distilled water:acetone. Surfactant (Kinetic HV) was added at a rate of 0.01% (vol/vol).The test solution was prepared at the day of use.
Soybean pods were placed in microwavable plastic cups and inoculated with ten adult stage E. heros. Using a hand atomizer, approximately 1 ml solution is sprayed into each cup, insects and food present. A water source was provided (cotton wick with water). Each treatment was replicated 2-fold. Assay arenas were kept at about 25° C. Percent mortality was recorded after 5 days.

[4] = system: Orchid Thrips (Dichromothrips Corbetti); assay: B.7 Orchid thrips floral-immersion test; details: at 300 ppm; adult thrips; recorded 72 hours after treatment
[5] = system: Vetch Aphid (Megoura viciae); assay: B.3 Vetch aphid test on broad bean leaf disks; details: at 2500 ppm; adult aphids; assessed after 5 days
Method: B.3 Vetch Aphid (Megoura viciae)
For evaluating control of vetch aphid (Megoura viciae) through contact or systemic means the test unit consisted of 24-well-microtiter plates containing broad bean leaf disks.
The compounds were formulated using a solution containing 75% v/v water and 25% v/v DMSO. Different concentrations of formulated compounds were sprayed onto the leaf disks at 2.5 μl, using a custom built micro atomizer, at two replications.
After application, the leaf disks were air-dried and 5-8 adult aphids placed on the leaf disks inside the microtiter plate wells. The aphids were then allowed to suck on the treated leaf disks and incubated at about 23±10C and about 50±5% relative humidity for 5 days. Aphid mortality and fecundity was then visually assessed.

[6] = system: Green Soldier Stink Bug (Nezara viridula); assay: B.11 Green soldier stink bug test on soybean pods in Petri dishes; details: at 300 ppm; late 3rd instar; recorded after 5 days
Method: B.11 Green Soldier Stink Bug (Nezara viridula)
as §1
Soybean pods were placed in glass Petri dishes lined with moist filter paper and inoculated with ten late 3rd instar N. viridula. Using a hand atomizer, approximately 2 ml solution is sprayed into each Petri dish. Assay arenas were kept at about 25° C. Percent mortality was recorded after 5 days.

[7] = system: Green Peach Aphid (Myzus persicae); assay: B.2 Green peach aphid systemic test, artificial diet under membrane in microtiter plates; details: at 2500 ppm; adult aphids; assessed after 3 days
[8] = system: Rice Green Leafhopper (Nephotettix virescens); assay: B.8 Rice green leafhopper test on sprayed rice seedlings; details: at 300 ppm; adults; recorded after 72 hours
Method: B.8 Rice Green Leafhopper (Nephotettix virescens)
Rice seedlings were cleaned and washed 24 hours before spraying. The active compounds were formulated in 1:1 acetone:water (vol:vol), and 0.01% vol/vol surfactant (Kinetic HV) was added. Potted rice seedlings were sprayed with 5-6 ml test solution, air dried, covered with Mylar cages cages and inoculated with 10 adults. Treated rice plants were kept at about 28-29° C. and relative humidity of about 50-60%. Percent mortality was recorded after 72 hours.

[9] = system: Diamond Back Moth (Plutella xylostella); assay: B.1 Diamond back moth leaf-dip test on cabbage leaves; details: at 300 ppm; 3rd instar larvae; recorded 72 hours after treatment
[10] = system: Boll Weevil (Anthonomus grandis); assay: B.5 Boll weevil test, insect diet with eggs in microtiter plates; details: at 2500 ppm; egg and larval mortality after 5 days
Outline: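 Compounds in 75% water/25% DMSO sprayed at several concentrations (5 μl, two replicates) onto insect diet in 96-well microtiter plates holding 5-10 A. grandis eggs. After 5 days at about 25±1° C and 75±5% relative humidity, egg and larval mortality scored visually.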

[11] = system: Southern Armyworm (Spodoptera eridania); assay: B.10 Southern armyworm test on sprayed lima bean plants; details: at 10 ppm; larvae; assessed 4 days after treatment
Method: B.10 Southern Armyworm (Spodoptera eridania)
The active compounds were formulated in cyclohexanone as a 10,000 ppm solution supplied in tubes. The tubes were inserted into an automated electrostatic sprayer equipped with an atomizing nozzle and they served as stock solutions for which lower dilutions were made in 50% acetone:50% water (v/v). A nonionic surfactant (Kinetic®) was included in the solution at a volume of 0.01% (v/v).
Lima bean plants (variety Sieva) were grown 2 plants to a pot and selected for treatment at the 1st true leaf stage. Test solutions were sprayed onto the foliage by an automated electrostatic plant sprayer equipped with an atomizing spray nozzle. The plants were dried in the sprayer fume hood and then removed from the sprayer. Each pot was placed into perforated plastic bags with a zip closure. About 10 to 11 armyworm larvae were placed into the bag and the bags zipped closed. Test plants were maintained in a growth room at about 250C and about 20-40% relative humidity for 4 days, avoiding direct exposure to fluorescent light (24 hour photoperiod) to prevent trapping of heat inside the bags. Mortality and reduced feeding were assessed 4 days after treatment, compared to untreated control plants.

[12] = system: Red Spider Mite (Tetranychus kanzawai); assay: B.9 Red spider mite test on sprayed cowpea beans; details: at 300 ppm; assessed 72 hours after treatment
Method: B.9 Red Spider Mite (Tetranychus kanzawai)
The active compound was dissolved at the desired concentration in a mixture of 1:1 (vol:vol) distilled water:acetone. Add surfactant (Kinetic HV) was added at a rate of 0.01% (vol/vol).The test solution was prepared at the day of use.
Potted cowpea beans of 4-5 days of age were cleaned with tap water and sprayed with 1-2 ml of the test solution using air driven hand atomizer. The treated plants were allowed to air dry and afterwards inoculated with 30 or more mites by clipping a cassava leaf section from rearing population. Treated plants were placed inside a holding room at about 25-27° C. and about 50-60% relative humidity. Percent mortality was assessed 72 hours after treatment.

Measured: mortality in comparison with untreated controls

O=C(NCc1ncccn1)c1ccc(C2=NOC(c3cc(Cl)c(F)c(Cl)c3)(C(F)(F)F)C2)c2c1OCC2 (stereo not drawn) [Compound I-1]
not listed: [11] | [12]
at least 75%: all other assays above

O=C(NC1CS(=O)(=O)C1)c1ccc(C2=NOC(c3cc(Cl)c(F)c(Cl)c3)(C(F)(F)F)C2)c2c1OCC2 (stereo not drawn) [Compound I-2]
not listed: [11] | [12]
at least 75%: all other assays above

C=CCNC(=O)CNC(=O)c1ccc(C2=NOC(c3cc(Cl)c(F)c(Cl)c3)(C(F)(F)F)C2)c2c1SCC2 (stereo not drawn) [Compound I-10]
not listed: [12]
at least 75%: all other assays above

CCS(=O)(=O)CC(=O)NCc1ccc(C2=NOC(c3cc(Cl)c(F)c(Cl)c3)(C(F)(F)F)C2)c2c1OCC2 (stereo not drawn) [Compound I-14]
not listed: [3] | [11]
at least 75%: all other assays above

CS(=O)(=O)CC(=O)NCc1ccc(C2=NOC(c3cc(Cl)c(F)c(Cl)c3)(C(F)(F)F)C2)c2c1OCC2 (stereo not drawn) [Compound I-19]
not listed: [3] | [11]
at least 75%: all other assays above

O=C(CNC(=O)c1ccc(C2=NOC(c3cc(Cl)c(F)c(Cl)c3)(C(F)(F)F)C2)c2c1COC2)NCC(F)(F)F (stereo not drawn) [Compound I-22]
not listed: [3] | [11]
at least 75%: all other assays above

CCN1OCC(NC(=O)c2ccc(C3=NOC(c4cc(Cl)c(F)c(Cl)c4)(C(F)(F)F)C3)c3c2COC3)C1=O (stereo not drawn) [Compound I-23]
not listed: [11]
at least 75%: all other assays above

CCN1OCC(NC(=O)c2ccc(C3=NOC(c4cc(Cl)c(F)c(Cl)c4)(C(F)(F)F)C3)c3c2OCC3)C1=O (stereo not drawn) [Compound I-28]
not listed: [3] | [11]
at least 75%: all other assays above

O=C(NCc1ccccn1)c1ccc(C2=NOC(c3cc(Cl)c(F)c(Cl)c3)(C(F)(F)F)C2)c2c1COC2 (stereo not drawn) [Compound I-29]
at least 75%: [12] | [4] | [6] | [9]

CCN1OC[C@@H](NC(=O)c2ccc(C3=NOC(c4cc(Cl)c(F)c(Cl)c4)(C(F)(F)F)C3)c3c2CS(=O)(=O)C3)C1=O (stereo partly drawn) [Compound I-54]
at least 75%: [1] | [12] | [2] | [4] | [5] | [7] | [10]

From US10273231B2, “Azoline compounds substituted by a condensed ring system” (BASF SE, priority 2014, dated 2019)
